# No constants are given. Whether binding was seen depends on the method and setting. Binding seen in cells or lysates may run through a third protein. Some entries that bind do so weakly or less than the wild type.
# Protein sequences, listed by entry. Tags and fused reporters are not part of them. Residues count along the entry.
# UniProt Q99836: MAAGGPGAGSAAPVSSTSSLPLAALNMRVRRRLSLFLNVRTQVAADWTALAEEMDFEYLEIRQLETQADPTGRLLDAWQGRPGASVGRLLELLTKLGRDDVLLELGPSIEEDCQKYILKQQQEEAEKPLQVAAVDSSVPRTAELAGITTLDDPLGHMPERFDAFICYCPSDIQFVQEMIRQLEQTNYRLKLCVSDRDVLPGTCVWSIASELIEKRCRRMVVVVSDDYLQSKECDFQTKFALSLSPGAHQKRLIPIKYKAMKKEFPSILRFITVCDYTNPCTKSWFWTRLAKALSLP
# UniProt O00206, residues 24-839: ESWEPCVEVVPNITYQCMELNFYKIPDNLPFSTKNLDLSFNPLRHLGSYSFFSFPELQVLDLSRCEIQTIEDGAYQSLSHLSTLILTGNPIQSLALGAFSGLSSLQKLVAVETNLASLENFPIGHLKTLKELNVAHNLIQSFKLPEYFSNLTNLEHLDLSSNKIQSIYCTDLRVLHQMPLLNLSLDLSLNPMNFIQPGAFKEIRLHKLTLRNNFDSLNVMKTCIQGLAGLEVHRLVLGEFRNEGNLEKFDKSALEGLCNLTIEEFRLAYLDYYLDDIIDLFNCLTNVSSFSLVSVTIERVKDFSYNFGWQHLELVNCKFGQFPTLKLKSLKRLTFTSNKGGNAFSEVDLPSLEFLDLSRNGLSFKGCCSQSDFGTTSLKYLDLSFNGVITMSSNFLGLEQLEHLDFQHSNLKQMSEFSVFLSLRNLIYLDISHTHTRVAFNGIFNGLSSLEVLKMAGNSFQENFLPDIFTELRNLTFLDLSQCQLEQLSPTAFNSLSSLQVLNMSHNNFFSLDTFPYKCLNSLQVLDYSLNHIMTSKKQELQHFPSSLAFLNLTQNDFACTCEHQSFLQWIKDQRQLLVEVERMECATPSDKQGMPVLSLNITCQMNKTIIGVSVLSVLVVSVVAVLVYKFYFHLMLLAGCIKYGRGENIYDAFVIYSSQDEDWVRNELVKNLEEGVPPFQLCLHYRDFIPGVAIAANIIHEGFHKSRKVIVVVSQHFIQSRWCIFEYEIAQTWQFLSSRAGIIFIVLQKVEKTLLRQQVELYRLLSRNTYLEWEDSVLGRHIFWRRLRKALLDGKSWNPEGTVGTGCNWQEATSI
# UniProt P22366: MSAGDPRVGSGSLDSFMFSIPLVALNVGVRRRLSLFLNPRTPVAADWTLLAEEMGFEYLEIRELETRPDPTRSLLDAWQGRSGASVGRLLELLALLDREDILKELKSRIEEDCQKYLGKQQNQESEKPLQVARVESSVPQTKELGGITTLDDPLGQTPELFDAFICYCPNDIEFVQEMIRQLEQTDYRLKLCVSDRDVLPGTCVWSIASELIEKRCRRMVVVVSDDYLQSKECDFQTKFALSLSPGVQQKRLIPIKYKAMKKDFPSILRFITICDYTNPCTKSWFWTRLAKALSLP
# UniProt P51617: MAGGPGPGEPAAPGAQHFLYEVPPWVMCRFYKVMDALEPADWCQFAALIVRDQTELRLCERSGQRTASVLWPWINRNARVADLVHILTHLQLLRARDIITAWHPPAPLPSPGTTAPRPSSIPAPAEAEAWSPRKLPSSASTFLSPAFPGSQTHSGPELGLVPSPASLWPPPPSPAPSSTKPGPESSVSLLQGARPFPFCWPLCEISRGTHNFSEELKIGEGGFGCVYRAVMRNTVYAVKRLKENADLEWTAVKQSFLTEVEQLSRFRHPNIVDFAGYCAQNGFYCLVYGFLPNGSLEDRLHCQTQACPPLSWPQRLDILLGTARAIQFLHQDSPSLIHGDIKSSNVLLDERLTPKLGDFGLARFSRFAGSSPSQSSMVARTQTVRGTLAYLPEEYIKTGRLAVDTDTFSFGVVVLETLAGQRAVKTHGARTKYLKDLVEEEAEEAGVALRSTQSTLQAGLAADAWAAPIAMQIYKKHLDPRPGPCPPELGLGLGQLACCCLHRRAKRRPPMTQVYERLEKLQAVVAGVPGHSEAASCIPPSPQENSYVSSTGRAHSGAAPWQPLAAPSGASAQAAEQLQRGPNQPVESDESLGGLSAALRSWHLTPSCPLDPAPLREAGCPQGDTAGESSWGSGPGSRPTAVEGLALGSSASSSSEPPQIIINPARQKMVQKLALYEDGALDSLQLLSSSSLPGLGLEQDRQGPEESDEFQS
# UniProt Q6ZWS8: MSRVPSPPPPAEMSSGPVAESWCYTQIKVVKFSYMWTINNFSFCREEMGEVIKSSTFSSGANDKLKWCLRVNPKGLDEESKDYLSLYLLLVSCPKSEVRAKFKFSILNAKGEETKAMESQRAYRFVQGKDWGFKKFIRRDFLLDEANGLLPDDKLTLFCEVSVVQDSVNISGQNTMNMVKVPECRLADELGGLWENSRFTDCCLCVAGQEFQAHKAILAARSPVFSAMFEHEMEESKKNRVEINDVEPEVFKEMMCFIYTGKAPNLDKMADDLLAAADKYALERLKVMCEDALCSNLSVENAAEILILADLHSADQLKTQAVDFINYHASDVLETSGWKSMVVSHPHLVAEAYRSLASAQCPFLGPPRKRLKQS
# UniProt P58753: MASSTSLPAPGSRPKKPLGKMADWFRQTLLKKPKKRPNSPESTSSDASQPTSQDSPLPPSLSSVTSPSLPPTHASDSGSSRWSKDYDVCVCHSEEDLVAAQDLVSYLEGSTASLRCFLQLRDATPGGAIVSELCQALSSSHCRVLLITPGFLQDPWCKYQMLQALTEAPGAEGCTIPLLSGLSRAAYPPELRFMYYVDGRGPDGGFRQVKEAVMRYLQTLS
# Assays:
# [1] = target: endogenous MyD88 of THP-1 cells (human (endogenous in THP-1)) (UniProt Q99836); assay: co-IP; endogenous proteins, THP-1 cells (wild type or SPOP-deficient) treated with LPS (100 ng/mL) for the indicated times; lysed and precipitated as for the transfected cells
# [2] = target: TLR4, Flag- or HA-tagged (UniProt O00206); assay: co-IP; HEK293 cells transfected for 20 h; NP-40 lysis buffer (20 mM Tris-HCl pH 7.4, 150 mM NaCl, 1 mM EDTA, 1% NP-40); antibody (anti-HA in Fig. 1b) or control IgG with protein G sepharose, 4 °C, 3 h; washes with lysis buffer containing 0.5 M NaCl; immunoblot; with or without overexpressed SPOP in Fig. 4b and Supplementary Fig. S5e, f
# [3] = target: endogenous mouse MyD88 of RAW264.7 cells (mouse (endogenous in RAW264.7)) (UniProt P22366); assay: co-IP; endogenous proteins, RAW264.7 cells left untreated or treated with LPS (100 ng/mL) for the indicated times
substance,measurement,setting,value
endogenous IRAK1 of THP-1 cells (from UniProt P51617 1-712) (enzyme),binding,[1],binds
"myeloid differentiation primary response gene 88 (MyD88), Flag- or HA-tagged, full length (from UniProt Q99836 1-296)",binding,[2],binds
endogenous mouse SPOP of RAW264.7 cells (from UniProt Q6ZWS8 1-374),binding,[3],binds
"MyD88 adapter-like (Mal), Flag- or HA-tagged (from UniProt P58753 1-221)",binding,[2],binds

# — article PMC8245473
